Test [1] has as its target Flag-tagged Vimentin (human) (UniProt P08670). The test is described as follows: co-IP; exogenous tagged proteins in transfected cells (MGC803 and MKN45 where named); low salt lysis buffer, supernatant with antibody (HA, Flag, 6xHis, MYC) and beads at 4 C overnight.
Test [2] deals with T1, HA-tagged Ladinin-1 (LAD1), full-length open reading frame (human) (UniProt O00515).
T1 sequence: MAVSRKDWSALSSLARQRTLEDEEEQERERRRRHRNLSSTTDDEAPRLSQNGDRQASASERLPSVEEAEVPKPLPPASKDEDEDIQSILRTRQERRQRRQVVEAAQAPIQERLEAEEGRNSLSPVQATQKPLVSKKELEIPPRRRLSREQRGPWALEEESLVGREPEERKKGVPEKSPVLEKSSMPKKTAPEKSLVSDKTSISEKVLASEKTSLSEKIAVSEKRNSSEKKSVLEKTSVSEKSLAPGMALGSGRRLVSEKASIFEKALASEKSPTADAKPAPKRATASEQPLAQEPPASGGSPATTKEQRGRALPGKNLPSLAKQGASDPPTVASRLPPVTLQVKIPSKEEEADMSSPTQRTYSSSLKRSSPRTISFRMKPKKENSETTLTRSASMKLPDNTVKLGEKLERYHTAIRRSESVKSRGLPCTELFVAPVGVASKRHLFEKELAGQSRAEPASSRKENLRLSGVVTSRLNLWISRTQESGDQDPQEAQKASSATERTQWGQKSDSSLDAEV
The description is as above.

Chains of the proteins cited; added tags and fusions are not shown.
UniProt P08670: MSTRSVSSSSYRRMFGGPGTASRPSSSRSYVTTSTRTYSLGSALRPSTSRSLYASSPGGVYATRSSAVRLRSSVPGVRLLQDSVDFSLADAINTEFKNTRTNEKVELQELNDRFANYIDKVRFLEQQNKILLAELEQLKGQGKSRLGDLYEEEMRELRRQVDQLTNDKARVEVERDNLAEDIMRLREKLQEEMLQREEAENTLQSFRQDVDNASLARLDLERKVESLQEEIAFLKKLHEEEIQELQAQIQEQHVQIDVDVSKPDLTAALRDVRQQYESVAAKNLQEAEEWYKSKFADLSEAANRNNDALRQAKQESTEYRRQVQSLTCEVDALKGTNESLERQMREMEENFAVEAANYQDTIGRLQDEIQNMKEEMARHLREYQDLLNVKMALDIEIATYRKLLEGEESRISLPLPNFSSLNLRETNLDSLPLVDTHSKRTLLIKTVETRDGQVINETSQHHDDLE

Test [3] addresses Flag-tagged Vimentin (human) (UniProt P08670). Description: co-IP; co-IP of Vimentin with MAEA or LAD1 in MGC803 and MKN45 cells with increasing doses of the third protein (LAD1 or MAEA).

No constants are given. Whether binding was seen depends on the method and setting. In cells and extracts the contact can be indirect. Some entries that bind do so weakly or less than the wild type. Tags and fused reporters may be left off the sequences shown.

With “Macrophage erythroblast attacher (MAEA), tagged, exogenous (from UniProt Q7L5Y9-1 1-396)”, the binding entry in test [1], in test [2] and in test [3] was “binds” in each case.

B1: HA-tagged Ladinin-1 (LAD1), full-length open reading frame (protein, UniProt O00515 1-517)
chain: MAVSRKDWSALSSLARQRTLEDEEEQERERRRRHRNLSSTTDDEAPRLSQNGDRQASASERLPSVEEAEVPKPLPPASKDEDEDIQSILRTRQERRQRRQVVEAAQAPIQERLEAEEGRNSLSPVQATQKPLVSKKELEIPPRRRLSREQRGPWALEEESLVGREPEERKKGVPEKSPVLEKSSMPKKTAPEKSLVSDKTSISEKVLASEKTSLSEKIAVSEKRNSSEKKSVLEKTSVSEKSLAPGMALGSGRRLVSEKASIFEKALASEKSPTADAKPAPKRATASEQPLAQEPPASGGSPATTKEQRGRALPGKNLPSLAKQGASDPPTVASRLPPVTLQVKIPSKEEEADMSSPTQRTYSSSLKRSSPRTISFRMKPKKENSETTLTRSASMKLPDNTVKLGEKLERYHTAIRRSESVKSRGLPCTELFVAPVGVASKRHLFEKELAGQSRAEPASSRKENLRLSGVVTSRLNLWISRTQESGDQDPQEAQKASSATERTQWGQKSDSSLDAEV
With B1, the binding entry in test [1] and in test [3] was “binds” in each case.

Source of the values: PMC10506284.
